Chains of the proteins cited; added tags and fusions are not shown.
UniProt P01100: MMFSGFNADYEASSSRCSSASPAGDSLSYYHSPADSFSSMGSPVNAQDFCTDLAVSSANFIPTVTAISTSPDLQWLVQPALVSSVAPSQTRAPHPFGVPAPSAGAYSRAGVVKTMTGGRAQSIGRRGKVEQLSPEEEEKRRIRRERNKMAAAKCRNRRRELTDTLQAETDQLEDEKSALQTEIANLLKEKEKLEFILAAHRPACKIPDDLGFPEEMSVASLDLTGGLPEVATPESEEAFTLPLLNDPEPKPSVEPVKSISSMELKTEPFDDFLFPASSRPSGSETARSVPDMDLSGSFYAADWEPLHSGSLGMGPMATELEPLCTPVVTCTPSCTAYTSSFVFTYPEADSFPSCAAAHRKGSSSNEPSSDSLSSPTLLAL
UniProt P05412: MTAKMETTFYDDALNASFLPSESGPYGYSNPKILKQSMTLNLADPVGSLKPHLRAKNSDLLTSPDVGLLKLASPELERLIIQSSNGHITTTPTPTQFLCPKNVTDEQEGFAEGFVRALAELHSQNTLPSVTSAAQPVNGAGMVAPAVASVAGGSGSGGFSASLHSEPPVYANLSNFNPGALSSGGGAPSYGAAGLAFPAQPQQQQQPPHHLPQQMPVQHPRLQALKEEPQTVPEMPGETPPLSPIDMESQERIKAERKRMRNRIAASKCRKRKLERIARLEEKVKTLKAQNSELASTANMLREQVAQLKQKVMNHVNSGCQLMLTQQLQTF
UniProt Q09472: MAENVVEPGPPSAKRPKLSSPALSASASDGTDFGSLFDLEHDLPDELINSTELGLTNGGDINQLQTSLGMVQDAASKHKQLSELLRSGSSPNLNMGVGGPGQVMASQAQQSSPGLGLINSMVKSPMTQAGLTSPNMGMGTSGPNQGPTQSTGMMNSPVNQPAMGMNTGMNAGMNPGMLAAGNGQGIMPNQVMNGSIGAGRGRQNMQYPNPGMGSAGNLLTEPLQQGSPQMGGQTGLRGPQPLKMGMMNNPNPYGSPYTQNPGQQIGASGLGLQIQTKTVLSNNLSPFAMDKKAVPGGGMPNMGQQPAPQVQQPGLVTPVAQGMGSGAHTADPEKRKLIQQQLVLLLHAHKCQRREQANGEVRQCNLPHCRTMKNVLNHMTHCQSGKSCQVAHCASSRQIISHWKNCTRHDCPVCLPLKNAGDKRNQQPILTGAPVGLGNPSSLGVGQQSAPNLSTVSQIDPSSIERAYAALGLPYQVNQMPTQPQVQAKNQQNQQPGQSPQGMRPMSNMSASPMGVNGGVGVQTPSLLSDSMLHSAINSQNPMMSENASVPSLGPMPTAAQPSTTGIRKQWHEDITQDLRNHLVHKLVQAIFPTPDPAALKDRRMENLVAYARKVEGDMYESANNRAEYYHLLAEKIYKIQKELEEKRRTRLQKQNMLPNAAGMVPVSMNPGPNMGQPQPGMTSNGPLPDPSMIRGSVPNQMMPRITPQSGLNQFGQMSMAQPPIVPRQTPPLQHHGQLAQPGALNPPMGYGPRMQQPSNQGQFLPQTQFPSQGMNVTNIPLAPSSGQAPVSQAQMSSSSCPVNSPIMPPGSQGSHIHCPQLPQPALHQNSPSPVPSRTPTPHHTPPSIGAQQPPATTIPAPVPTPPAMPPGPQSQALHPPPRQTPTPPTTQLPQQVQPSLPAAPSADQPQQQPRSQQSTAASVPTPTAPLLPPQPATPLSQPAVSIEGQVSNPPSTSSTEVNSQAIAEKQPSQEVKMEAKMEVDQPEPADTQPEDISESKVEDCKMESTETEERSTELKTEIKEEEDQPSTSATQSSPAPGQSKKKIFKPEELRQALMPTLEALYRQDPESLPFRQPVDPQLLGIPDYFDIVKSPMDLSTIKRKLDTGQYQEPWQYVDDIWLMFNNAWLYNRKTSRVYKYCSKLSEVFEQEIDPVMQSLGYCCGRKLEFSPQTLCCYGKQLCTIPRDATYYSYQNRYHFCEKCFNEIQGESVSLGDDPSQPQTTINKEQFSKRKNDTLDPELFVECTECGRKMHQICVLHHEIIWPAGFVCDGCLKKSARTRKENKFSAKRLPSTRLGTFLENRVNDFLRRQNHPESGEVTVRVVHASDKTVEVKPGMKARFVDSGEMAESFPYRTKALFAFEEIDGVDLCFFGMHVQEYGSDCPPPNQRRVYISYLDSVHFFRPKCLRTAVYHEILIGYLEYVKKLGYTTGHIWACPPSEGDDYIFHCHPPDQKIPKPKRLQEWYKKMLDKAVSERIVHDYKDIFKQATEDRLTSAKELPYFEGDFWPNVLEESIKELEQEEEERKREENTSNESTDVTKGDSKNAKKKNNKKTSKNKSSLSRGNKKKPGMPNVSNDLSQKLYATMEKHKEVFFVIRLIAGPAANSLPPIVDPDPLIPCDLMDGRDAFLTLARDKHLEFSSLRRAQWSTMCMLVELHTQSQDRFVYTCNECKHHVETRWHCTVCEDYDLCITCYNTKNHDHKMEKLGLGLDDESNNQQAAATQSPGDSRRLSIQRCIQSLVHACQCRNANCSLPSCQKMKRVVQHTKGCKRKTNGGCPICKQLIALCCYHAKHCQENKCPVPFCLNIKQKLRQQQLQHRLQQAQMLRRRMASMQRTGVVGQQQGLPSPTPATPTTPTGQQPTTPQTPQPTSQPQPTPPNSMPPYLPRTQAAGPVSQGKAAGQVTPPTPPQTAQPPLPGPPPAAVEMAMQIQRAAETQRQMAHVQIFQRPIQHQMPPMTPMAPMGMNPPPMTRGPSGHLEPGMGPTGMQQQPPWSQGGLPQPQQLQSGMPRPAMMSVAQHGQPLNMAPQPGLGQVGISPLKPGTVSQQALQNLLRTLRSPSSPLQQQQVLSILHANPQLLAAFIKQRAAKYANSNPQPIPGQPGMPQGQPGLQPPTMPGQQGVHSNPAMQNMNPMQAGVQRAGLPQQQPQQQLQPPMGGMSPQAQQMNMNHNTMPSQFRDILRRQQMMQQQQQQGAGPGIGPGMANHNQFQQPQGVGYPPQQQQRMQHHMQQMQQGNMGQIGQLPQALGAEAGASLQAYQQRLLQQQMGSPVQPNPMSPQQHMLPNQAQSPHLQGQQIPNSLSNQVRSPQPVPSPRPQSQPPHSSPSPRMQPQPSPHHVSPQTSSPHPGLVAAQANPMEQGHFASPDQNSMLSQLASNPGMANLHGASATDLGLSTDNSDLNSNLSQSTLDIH

According to paper PMC6949151:

How the values were obtained:
Flag-c-FOS = Flag-c-FOS (UniProt P01100); assay: affinity purification with mass spectrometry; lysate (1× RIPA buffer with protease inhibitor) of RPTEC/TERT1 OAT3 cells expressing 2×Flag-c-FOS or 2×Flag-c-Jun, immunoprecipitated with anti-Flag agarose; SDS gel, silver stain, bands excised, Q Exactive HF-X, MASCOT search
Flag-c-Jun = Flag-c-Jun (UniProt P05412); assay: as above

binding (Flag-c-FOS): binds
binding (Flag-c-Jun): binds
Substance: histone acetyltransferase p300 (from UniProt Q09472 1-2414)

Results are given in words; binding and its absence hold for the method and conditions named. In cells and extracts the contact can be indirect. These calls come from enrichment with a bait or labelling near it, and not all partners need be listed.
